The supplement of paper PMC6411743
± gives the standard deviation of the averaged measurements. The entries are a selection whose mix differs from that of the whole data set.

Protein sequences, listed by entry. Tags and fused reporters are not part of them. Lines headed by an entry give the natural chain unless they say otherwise; changes in a name come on top.
UniProt Q9UPN9: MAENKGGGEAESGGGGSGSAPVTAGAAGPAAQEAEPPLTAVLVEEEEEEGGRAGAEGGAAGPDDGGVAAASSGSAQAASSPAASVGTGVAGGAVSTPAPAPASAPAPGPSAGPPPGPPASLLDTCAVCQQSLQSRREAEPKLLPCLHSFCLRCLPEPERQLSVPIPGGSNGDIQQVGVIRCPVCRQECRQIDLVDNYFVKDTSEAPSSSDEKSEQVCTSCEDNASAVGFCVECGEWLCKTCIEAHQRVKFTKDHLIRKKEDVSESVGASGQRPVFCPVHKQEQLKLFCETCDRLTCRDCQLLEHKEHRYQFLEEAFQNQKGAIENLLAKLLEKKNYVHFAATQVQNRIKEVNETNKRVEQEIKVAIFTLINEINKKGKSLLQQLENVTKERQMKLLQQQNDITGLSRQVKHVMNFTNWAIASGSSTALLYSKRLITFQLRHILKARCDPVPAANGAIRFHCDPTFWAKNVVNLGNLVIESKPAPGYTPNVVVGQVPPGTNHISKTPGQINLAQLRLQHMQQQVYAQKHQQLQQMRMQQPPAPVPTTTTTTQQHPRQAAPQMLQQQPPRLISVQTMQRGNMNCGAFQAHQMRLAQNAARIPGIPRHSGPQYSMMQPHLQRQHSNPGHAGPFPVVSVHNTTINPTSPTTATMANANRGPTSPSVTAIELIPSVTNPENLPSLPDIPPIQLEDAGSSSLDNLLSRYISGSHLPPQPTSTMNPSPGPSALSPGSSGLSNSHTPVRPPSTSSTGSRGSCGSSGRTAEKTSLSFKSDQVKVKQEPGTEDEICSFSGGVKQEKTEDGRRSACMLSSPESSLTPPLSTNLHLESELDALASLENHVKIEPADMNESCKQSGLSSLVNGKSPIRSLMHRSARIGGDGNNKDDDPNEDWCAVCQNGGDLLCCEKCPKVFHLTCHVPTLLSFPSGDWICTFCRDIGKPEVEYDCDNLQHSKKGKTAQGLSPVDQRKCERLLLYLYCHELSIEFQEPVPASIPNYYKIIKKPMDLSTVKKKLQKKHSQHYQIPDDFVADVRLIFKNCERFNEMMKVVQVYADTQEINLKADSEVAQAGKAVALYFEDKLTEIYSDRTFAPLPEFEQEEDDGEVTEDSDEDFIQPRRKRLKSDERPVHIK
UniProt P35236: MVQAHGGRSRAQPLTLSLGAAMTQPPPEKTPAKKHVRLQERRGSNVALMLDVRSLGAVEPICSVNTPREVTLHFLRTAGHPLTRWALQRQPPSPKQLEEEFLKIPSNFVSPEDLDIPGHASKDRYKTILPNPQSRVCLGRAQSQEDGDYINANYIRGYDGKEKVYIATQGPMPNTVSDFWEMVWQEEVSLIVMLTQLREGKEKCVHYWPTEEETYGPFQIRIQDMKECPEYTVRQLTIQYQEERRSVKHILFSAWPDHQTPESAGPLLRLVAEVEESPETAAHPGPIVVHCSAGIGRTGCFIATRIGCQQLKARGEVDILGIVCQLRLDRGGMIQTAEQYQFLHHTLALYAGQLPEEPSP
UniProt Q9BQF6: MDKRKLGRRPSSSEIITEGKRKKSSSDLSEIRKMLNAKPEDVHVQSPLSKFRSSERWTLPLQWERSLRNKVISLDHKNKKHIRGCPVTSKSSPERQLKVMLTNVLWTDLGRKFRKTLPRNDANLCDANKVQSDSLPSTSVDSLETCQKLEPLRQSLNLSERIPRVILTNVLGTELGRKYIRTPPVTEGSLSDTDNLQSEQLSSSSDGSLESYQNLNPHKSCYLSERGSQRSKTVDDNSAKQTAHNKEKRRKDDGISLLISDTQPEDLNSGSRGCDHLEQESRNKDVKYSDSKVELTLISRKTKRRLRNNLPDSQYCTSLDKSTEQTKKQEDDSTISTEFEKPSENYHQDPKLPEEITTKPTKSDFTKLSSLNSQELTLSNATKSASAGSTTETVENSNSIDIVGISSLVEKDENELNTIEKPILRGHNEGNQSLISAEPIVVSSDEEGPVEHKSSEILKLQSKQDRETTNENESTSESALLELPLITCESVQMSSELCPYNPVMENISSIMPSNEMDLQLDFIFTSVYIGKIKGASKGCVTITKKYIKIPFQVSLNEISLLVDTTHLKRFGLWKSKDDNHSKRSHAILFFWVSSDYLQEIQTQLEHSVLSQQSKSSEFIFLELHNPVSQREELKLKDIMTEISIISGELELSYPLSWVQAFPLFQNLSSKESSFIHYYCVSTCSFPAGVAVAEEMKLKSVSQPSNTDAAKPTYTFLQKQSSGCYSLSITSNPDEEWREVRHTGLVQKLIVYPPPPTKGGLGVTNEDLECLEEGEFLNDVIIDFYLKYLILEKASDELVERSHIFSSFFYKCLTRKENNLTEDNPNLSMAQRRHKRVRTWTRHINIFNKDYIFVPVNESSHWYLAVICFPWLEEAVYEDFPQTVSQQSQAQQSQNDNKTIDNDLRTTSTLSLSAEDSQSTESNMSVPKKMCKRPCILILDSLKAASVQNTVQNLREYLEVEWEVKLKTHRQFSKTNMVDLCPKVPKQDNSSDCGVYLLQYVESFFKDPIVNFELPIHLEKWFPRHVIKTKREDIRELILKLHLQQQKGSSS
UniProt Q5VW38: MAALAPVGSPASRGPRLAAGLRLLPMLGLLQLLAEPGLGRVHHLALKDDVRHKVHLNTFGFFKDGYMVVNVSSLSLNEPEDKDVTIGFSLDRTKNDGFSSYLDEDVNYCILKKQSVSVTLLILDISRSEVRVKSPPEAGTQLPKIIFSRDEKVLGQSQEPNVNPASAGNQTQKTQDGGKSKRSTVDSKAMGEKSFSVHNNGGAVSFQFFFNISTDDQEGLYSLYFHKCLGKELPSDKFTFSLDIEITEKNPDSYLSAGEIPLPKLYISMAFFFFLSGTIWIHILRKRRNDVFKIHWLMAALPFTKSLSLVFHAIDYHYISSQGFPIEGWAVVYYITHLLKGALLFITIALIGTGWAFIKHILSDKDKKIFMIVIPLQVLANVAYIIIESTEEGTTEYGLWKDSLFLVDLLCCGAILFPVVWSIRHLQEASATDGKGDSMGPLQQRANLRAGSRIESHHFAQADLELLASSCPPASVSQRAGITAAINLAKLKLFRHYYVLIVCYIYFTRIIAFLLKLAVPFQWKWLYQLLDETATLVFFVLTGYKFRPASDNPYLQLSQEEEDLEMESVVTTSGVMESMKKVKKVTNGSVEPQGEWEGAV
UniProt P61769, whole entry: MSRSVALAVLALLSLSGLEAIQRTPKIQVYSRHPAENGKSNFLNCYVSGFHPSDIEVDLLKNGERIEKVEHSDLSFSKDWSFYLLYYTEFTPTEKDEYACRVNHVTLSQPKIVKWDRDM
UniProt O14964, whole entry: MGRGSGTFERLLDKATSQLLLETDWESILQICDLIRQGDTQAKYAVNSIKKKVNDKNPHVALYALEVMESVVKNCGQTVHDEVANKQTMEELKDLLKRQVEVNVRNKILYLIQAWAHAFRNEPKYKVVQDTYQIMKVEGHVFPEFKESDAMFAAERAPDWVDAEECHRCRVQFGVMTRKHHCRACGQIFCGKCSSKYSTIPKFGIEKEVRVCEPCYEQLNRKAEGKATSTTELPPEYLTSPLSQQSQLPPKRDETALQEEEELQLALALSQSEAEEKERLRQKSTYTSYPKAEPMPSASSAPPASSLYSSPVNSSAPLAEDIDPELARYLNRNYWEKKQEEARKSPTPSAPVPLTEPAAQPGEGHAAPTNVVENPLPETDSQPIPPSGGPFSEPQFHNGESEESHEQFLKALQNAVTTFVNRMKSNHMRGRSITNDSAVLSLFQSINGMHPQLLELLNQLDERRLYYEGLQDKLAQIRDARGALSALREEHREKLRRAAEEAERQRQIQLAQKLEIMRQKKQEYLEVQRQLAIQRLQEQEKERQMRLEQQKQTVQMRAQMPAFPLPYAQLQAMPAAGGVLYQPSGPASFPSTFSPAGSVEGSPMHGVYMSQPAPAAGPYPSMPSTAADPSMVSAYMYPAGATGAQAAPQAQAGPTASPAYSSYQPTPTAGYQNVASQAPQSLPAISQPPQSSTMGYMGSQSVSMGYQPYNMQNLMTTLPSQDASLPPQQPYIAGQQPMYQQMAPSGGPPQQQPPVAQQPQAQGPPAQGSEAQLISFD
UniProt O43169: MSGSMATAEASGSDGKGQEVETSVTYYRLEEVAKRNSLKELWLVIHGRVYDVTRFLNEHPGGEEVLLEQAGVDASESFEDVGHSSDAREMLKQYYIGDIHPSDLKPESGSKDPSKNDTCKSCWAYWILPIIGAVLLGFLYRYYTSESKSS
UniProt Q13686: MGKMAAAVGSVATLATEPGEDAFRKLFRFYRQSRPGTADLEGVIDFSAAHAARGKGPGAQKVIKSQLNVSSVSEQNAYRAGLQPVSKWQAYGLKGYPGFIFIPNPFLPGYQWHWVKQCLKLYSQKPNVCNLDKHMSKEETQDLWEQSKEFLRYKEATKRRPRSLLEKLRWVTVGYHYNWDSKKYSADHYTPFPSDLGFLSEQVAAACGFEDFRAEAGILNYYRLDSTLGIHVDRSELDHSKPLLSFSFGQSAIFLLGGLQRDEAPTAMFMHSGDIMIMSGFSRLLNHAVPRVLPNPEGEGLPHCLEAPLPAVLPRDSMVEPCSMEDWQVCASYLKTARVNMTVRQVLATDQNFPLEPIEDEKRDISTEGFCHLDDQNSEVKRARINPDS
UniProt P35637: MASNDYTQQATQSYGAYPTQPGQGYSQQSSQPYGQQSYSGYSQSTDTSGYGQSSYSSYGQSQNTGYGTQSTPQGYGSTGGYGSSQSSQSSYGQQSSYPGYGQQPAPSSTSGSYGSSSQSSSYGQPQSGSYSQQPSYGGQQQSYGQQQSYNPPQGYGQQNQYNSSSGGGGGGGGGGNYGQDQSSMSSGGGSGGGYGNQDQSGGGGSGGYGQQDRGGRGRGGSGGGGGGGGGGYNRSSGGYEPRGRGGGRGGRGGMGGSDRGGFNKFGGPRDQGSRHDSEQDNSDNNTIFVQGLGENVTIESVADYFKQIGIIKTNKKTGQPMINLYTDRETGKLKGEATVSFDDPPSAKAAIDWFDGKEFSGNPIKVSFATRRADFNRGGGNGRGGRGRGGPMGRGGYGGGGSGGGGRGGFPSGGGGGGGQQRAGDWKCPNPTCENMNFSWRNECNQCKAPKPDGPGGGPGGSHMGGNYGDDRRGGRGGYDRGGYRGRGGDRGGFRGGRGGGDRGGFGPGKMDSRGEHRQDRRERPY
UniProt Q7RTR2: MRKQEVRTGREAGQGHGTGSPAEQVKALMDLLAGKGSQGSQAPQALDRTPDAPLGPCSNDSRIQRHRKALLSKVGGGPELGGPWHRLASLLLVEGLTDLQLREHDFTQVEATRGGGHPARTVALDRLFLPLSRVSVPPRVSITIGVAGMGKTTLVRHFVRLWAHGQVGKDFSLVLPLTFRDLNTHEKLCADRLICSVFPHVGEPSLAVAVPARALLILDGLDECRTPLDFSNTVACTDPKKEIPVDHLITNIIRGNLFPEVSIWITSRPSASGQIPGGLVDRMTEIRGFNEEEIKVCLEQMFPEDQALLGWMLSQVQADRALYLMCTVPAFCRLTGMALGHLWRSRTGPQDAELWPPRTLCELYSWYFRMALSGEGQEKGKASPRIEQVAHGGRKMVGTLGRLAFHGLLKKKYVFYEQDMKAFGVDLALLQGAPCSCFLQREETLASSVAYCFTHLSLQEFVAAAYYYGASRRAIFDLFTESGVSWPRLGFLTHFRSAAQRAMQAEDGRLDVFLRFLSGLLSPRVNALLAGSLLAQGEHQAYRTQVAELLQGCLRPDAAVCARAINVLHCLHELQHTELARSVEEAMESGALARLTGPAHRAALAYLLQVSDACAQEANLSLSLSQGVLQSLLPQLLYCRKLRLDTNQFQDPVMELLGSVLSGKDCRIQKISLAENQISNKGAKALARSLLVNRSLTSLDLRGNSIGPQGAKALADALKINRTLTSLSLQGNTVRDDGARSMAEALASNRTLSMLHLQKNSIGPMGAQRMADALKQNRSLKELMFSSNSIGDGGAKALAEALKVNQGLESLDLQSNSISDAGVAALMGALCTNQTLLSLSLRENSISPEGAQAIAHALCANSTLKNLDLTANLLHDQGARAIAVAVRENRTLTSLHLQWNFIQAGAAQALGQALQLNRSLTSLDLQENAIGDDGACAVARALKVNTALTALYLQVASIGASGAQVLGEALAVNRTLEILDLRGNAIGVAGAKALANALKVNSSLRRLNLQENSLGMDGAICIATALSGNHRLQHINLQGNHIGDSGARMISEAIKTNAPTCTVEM
UniProt Q96MX0: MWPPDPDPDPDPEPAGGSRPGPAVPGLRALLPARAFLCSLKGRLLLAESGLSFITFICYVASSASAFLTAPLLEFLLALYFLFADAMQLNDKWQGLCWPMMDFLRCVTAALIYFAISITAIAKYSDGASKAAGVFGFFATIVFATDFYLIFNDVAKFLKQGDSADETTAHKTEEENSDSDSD
UniProt P78537: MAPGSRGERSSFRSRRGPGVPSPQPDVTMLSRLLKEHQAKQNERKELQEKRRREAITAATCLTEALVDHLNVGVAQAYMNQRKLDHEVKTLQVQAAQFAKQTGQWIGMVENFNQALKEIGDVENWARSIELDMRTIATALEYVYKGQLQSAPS

Compound: Nc1ncnc2c1ncn2[C@@H]1O[C@H](COP(=O)(O)OP(=O)(O)NP(=O)(O)O)[C@@H](O)[C@H]1O [adenylyl imidodiphosphate]
Test: NP40-soluble protein abundance relative to vehicle (solubility fold change) (ratio); higher = more soluble protein in presence of AMP-PNP
Summary of the method: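 In three independent experiments, Jurkat crude lysate made by Dounce homogenisation was treated for 10 min at room temperature and then 3 min at 37 °C with eight concentrations ranging from 0.1 to 10 mM. It was then solubilised with 0.8% NP40 plus benzonase for 60 min at 4 °C and ultracentrifuged. The supernatant was TMT-labelled for LC-MS/MS, and each value is the fold change against the detergent-processed vehicle for the same replicate, using vsn-normalised intensities.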

Target	NP40-soluble protein abundance (concentration: 1mM)	NP40-soluble protein abundance (concentration: 2mM)	NP40-soluble protein abundance (concentration: 4mM)	NP40-soluble protein abundance (concentration: 6mM)	NP40-soluble protein abundance (concentration: 8mM)	NP40-soluble protein abundance (concentration: 10mM)
J3KP26 and related entries (UniProt Q86W74)	1.03 ± 0.02	1.006 ± 0.01	0.9795 ± 0.0078	1 ± 0.046	0.983 ± 0.031	0.979 ± 0.039
K7EIY6 and related entries (UniProt Q9BV68)	1.02 ± 0.03	1.06 ± 0.024	1 ± 0.041	1.01 ± 0.024	0.968 ± 0.016	0.975 ± 0.017
H0YN99 and related entries (UniProt Q9H792)	0.9969 ± 0.0086	1.038 ± 0.0094	1.04 ± 0.085	1.04 ± 0.02	1.02 ± 0.026	1.03 ± 0.042
G3V4K3 and related entries (UniProt Q9H9C1)	0.987 ± 0.019	0.929 ± 0.054	0.961 ± 0.013	0.9324 ± 0.0074	0.939 ± 0.015	0.925 ± 0.019
J3KNF5 and related entries (UniProt O15078)	0.962 ± 0.016	0.913 ± 0.052	0.92 ± 0.022	0.972 ± 0.02	0.941 ± 0.032	0.964 ± 0.04
H0YKD8 and related entries (UniProt P46779)	1.05 ± 0.14	1.02 ± 0.09	1.01 ± 0.13	0.993 ± 0.071	0.919 ± 0.098	1.05 ± 0.16
J3KQH6 and related entries (UniProt P78364)	1.01 ± 0.067	1.01 ± 0.02	1.01 ± 0.018	1.04 ± 0.047	1.03 ± 0.025	1.05 ± 0.032
H0Y612 and related entries (UniProt Q9UPN9)	1.01 ± 0.027	1.04 ± 0.041	1.04 ± 0.029	1.062 ± 0.0097	1.02 ± 0.014	1.05 ± 0.02
H7BXK9 and related entries (UniProt Q9NP58)	0.943 ± 0.026	0.946 ± 0.027	0.9576 ± 0.008	1.01 ± 0.012	0.9882 ± 0.0095	1.01 ± 0.019
H0YNU5 and related entries (UniProt P54132)	1.02 ± 0.033	1.02 ± 0.048	1.01 ± 0.038	1.06 ± 0.028	1.05 ± 0.045	1.08 ± 0.058
H0Y360 and related entries (UniProt Q01433)	0.978 ± 0.021	0.968 ± 0.028	0.963 ± 0.0099	0.966 ± 0.016	0.968 ± 0.012	0.968 ± 0.028
H0Y7L2 and related entries (UniProt Q96N67)	0.9785 ± 0.0054	0.956 ± 0.09	0.961 ± 0.044	0.971 ± 0.065	0.977 ± 0.11	0.963 ± 0.13
I6L8A6 and related entries (UniProt Q99708)	0.981 ± 0.029	0.989 ± 0.022	1.02 ± 0.067	0.975 ± 0.075	0.97 ± 0.065	0.956 ± 0.054
G3XAJ6 and related entries (UniProt Q14699)	0.987 ± 0.012	1.03 ± 0.045	1.03 ± 0.028	0.981 ± 0.023	0.954 ± 0.029	0.984 ± 0.036
J3KNZ9 (UniProt Q9HAH7)	0.9532 ± 0.005	0.972 ± 0.033	0.97 ± 0.052	0.96 ± 0.013	0.939 ± 0.024	0.94 ± 0.035
H7BXC7 and related entries (UniProt Q9H7P9)	1.034 ± 0.0048	1.03 ± 0.049	1.02 ± 0.024	0.968 ± 0.012	0.978 ± 0.015	1 ± 0.032
J3KN16 and related entries (UniProt Q5VYK3+J3KN16)	1 ± 0.014	0.98 ± 0.019	1.01 ± 0.026	0.963 ± 0.022	0.974 ± 0.015	0.991 ± 0.023
I3L0L6 and related entries (UniProt Q9H6Y7)	1.04 ± 0.048	1.15 ± 0.14	1.04 ± 0.061	1.07 ± 0.088	1.09 ± 0.083	1.12 ± 0.12
H7C5I3 and related entries (UniProt P35236)	0.978 ± 0.0098	1.01 ± 0.021	0.994 ± 0.037	0.978 ± 0.011	0.959 ± 0.018	0.982 ± 0.033

Target	NP40-soluble protein abundance (concentration: 1mM)	NP40-soluble protein abundance (concentration: 2mM)	NP40-soluble protein abundance (concentration: 4mM)	NP40-soluble protein abundance (concentration: 6mM)	NP40-soluble protein abundance (concentration: 8mM)	NP40-soluble protein abundance (concentration: 10mM)
J3QR07 and related entries (UniProt Q96MU7)	1.06 ± 0.058	1.12 ± 0.07	1.09 ± 0.045	1.12 ± 0.11	1.12 ± 0.072	1.16 ± 0.086
J3QT09 and related entries (UniProt Q9BQF6)	1.01 ± 0.042	0.977 ± 0.011	0.997 ± 0.05	1.02 ± 0.027	1.03 ± 0.026	1.01 ± 0.039
H0YM31 and related entries (UniProt Q16822)	1.01 ± 0.014	0.962 ± 0.075	1.017 ± 0.0096	0.962 ± 0.027	0.972 ± 0.02	0.959 ± 0.021
G3XAN4 and related entries (UniProt Q15629)	1.03 ± 0.017	1.05 ± 0.079	1.02 ± 0.086	1.05 ± 0.058	1.06 ± 0.068	1.05 ± 0.082
H7C1I0 and related entries (UniProt Q96K37)	1.02 ± 0.041	1.03 ± 0.017	1.02 ± 0.022	1.02 ± 0.039	1.05 ± 0.054	1.07 ± 0.056
G5E994 and related entries (UniProt Q5VW38)	1.026 ± 0.0089	1.01 ± 0.018	0.976 ± 0.02	0.983 ± 0.024	1.01 ± 0.021	1.018 ± 0.0091
H0YLF3 and related entries (UniProt P61769)	0.99 ± 0.055	0.977 ± 0.084	0.923 ± 0.1	0.879 ± 0.15	0.971 ± 0.035	0.917 ± 0.076
H7BZJ3 and related entries (UniProt P30101)	1.03 ± 0.02	1.04 ± 0.05	1.02 ± 0.025	0.981 ± 0.042	0.961 ± 0.044	0.965 ± 0.1
G5E9C0 and related entries (UniProt Q9HB58)	1.02 ± 0.051	1.04 ± 0.035	1.03 ± 0.022	1.08 ± 0.036	1.06 ± 0.038	1.12 ± 0.051
H0YC40 and related entries (UniProt Q08722)	0.99 ± 0.022	1.07 ± 0.087	0.982 ± 0.051	1.02 ± 0.04	0.991 ± 0.05	1.02 ± 0.069
H0YL70 and related entries (UniProt Q04726)	1.01 ± 0.017	0.964 ± 0.024	0.999 ± 0.03	0.944 ± 0.021	0.968 ± 0.043	0.916 ± 0.026
G3V529 and related entries (UniProt Q9GZR7)	1.018 ± 0.0045	0.986 ± 0.022	0.9959 ± 0.0084	0.986 ± 0.015	0.9765 ± 0.0097	0.99 ± 0.014
I3L165 and related entries (UniProt O14964)	0.981 ± 0.03	0.987 ± 0.067	0.993 ± 0.049	1.01 ± 0.096	1.02 ± 0.05	1.04 ± 0.069
H3BMM5 and related entries (UniProt Q96AX1+H3BMM5)	1.023 ± 0.0022	0.919 ± 0.05	0.992 ± 0.032	0.951 ± 0.022	0.977 ± 0.026	0.9517 ± 0.0062
G5E9A6 and related entries (UniProt P51784)	0.984 ± 0.033	0.892 ± 0.11	0.96 ± 0.0093	0.933 ± 0.0096	0.964 ± 0.013	0.914 ± 0.02
H0YMG7 and related entries (UniProt O94788)	0.9559 ± 0.005	0.875 ± 0.093	0.943 ± 0.014	0.9015 ± 0.003	0.917 ± 0.021	0.8663 ± 0.0029
H0Y4T4 and related entries (UniProt Q5SW79)	1.02 ± 0.024	1.02 ± 0.028	0.99 ± 0.042	0.951 ± 0.058	0.923 ± 0.042	0.942 ± 0.064
H3BSS6 and related entries (UniProt Q9H2Y7)	1.02 ± 0.014	1.02 ± 0.018	1.004 ± 0.0087	1.01 ± 0.011	1.02 ± 0.017	1.02 ± 0.029
UniProt G3V599	1.01 ± 0.031	1.06 ± 0.059	1.03 ± 0.057	0.9787 ± 0.0067	0.984 ± 0.015	0.976 ± 0.034

Target	NP40-soluble protein abundance (concentration: 1mM)	NP40-soluble protein abundance (concentration: 2mM)	NP40-soluble protein abundance (concentration: 4mM)	NP40-soluble protein abundance (concentration: 6mM)	NP40-soluble protein abundance (concentration: 8mM)	NP40-soluble protein abundance (concentration: 10mM)
J3KNF8 and related entries (UniProt O43169)	1.15 ± 0.069	1.34 ± 0.33	1.1 ± 0.049	1.08 ± 0.047	1.03 ± 0.08	1.05 ± 0.054
H0YJF3 and related entries (UniProt Q13686)	0.9813 ± 0.0041	0.9829 ± 0.0011	0.9693 ± 0.0041	0.992 ± 0.016	0.992 ± 0.027	0.967 ± 0.018
H3BVG0 and related entries (UniProt Q8N1F7)	0.963 ± 0.037	0.9258 ± 0.0092	0.952 ± 0.03	0.994 ± 0.037	1.01 ± 0.015	1.03 ± 0.026
H7BYF2 and related entries (UniProt Q9BVL2)	1.031 ± 0.0089	1.1 ± 0.095	1.04 ± 0.053	1.03 ± 0.033	1.04 ± 0.026	1.11 ± 0.06
H7C2F9 and related entries (UniProt Q15032)	1.02 ± 0.035	1.04 ± 0.028	1.04 ± 0.021	0.997 ± 0.029	0.9737 ± 0.0079	1.022 ± 0.006
H3BPE7 and related entries (UniProt P35637)	1.07 ± 0.03	1.19 ± 0.057	1.15 ± 0.056	1.22 ± 0.05	1.23 ± 0.087	1.296 ± 0.0023
K4DI93 and related entries (UniProt Q13620)	0.991 ± 0.011	0.936 ± 0.05	0.9972 ± 0.0076	0.992 ± 0.028	1 ± 0.017	0.995 ± 0.024
H3BLV9 and related entries (UniProt Q96SB4)	1.08 ± 0.011	1.14 ± 0.035	1.22 ± 0.035	1.29 ± 0.036	1.359 ± 0.011	1.46 ± 0.044
H3BLT9 and related entries (UniProt Q7RTR2)	0.969 ± 0.0088	0.9698 ± 0.0089	0.9643 ± 0.0042	0.947 ± 0.038	0.947 ± 0.029	0.953 ± 0.032
H3BP28 and related entries (UniProt Q99807)	0.971 ± 0.054	0.962 ± 0.038	0.947 ± 0.04	0.972 ± 0.071	0.98 ± 0.037	0.959 ± 0.044
H3BP71 and related entries (UniProt O75150)	1.05 ± 0.032	1.08 ± 0.032	1.04 ± 0.017	1.03 ± 0.034	1.01 ± 0.015	1.04 ± 0.032
I3L3C2 and related entries (UniProt Q96MX0)	0.926 ± 0.018	0.955 ± 0.056	0.937 ± 0.046	1 ± 0.072	0.978 ± 0.1	0.941 ± 0.099
H3BLU2 and related entries (UniProt Q13449)	1 ± 0.025	1.09 ± 0.064	0.9961 ± 0.0087	1.01 ± 0.033	0.95 ± 0.055	0.99 ± 0.029
J3QL56 and related entries (UniProt O75880)	1 ± 0.029	0.998 ± 0.014	0.971 ± 0.015	1.017 ± 0.0091	0.96 ± 0.032	0.978 ± 0.042
H7C5D9 and related entries (UniProt O75427)	1.05 ± 0.037	1.05 ± 0.05	1.02 ± 0.041	1.04 ± 0.07	1.04 ± 0.051	1.06 ± 0.051
H7BXF4 and related entries (UniProt Q9NXE4)	0.979 ± 0.037	0.935 ± 0.035	0.996 ± 0.028	0.944 ± 0.026	0.984 ± 0.022	0.943 ± 0.024
G8JLQ3 and related entries (UniProt P78537)	1.01 ± 0.043	1.03 ± 0.018	0.9428 ± 0.0055	0.879 ± 0.017	0.901 ± 0.05	0.862 ± 0.043
J3KPF0 (UniProt Q9Y4D8)	1.02 ± 0.058	1.01 ± 0.054	1.01 ± 0.038	0.984 ± 0.057	0.982 ± 0.076	0.989 ± 0.088

Part of the list above with just NP40-soluble protein abundance (concentration: 10mM):
Target	NP40-soluble protein abundance (concentration: 10mM)
G3XAJ6 and related entries (UniProt Q14699)	0.984 ± 0.036
J3KNZ9 (UniProt Q9HAH7)	0.94 ± 0.035
H7BXC7 and related entries (UniProt Q9H7P9)	1 ± 0.032

A run of entries of the results above:
Target	NP40-soluble protein abundance (concentration: 1mM)	NP40-soluble protein abundance (concentration: 2mM)	NP40-soluble protein abundance (concentration: 4mM)	NP40-soluble protein abundance (concentration: 6mM)	NP40-soluble protein abundance (concentration: 8mM)	NP40-soluble protein abundance (concentration: 10mM)
H0YMG7 and related entries (UniProt O94788)	0.9559 ± 0.005	0.875 ± 0.093	0.943 ± 0.014	0.9015 ± 0.003	0.917 ± 0.021	0.8663 ± 0.0029
H0Y4T4 and related entries (UniProt Q5SW79)	1.02 ± 0.024	1.02 ± 0.028	0.99 ± 0.042	0.951 ± 0.058	0.923 ± 0.042	0.942 ± 0.064
